Among the data in publication PMC7382093 are binding values, retold here.

Sequences of proteins named here, by UniProt entry; tags and fusion partners are left off. A change or cut given only in a name is not applied to a line headed by its entry.
UniProt U6KIP1: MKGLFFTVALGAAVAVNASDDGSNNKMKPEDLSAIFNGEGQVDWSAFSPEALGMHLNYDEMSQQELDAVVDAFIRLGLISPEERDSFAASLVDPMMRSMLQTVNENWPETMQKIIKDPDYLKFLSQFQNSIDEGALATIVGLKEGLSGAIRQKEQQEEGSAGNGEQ

The target of the test is GST-EtAMA1 (recombinant Eimeria tenella apical membrane antigen 1) (Eimeria tenella) (UniProt F8V414). Put plainly: pull-down; Pierce GST Protein Interaction Pull-Down Kit; GST-EtAMA1 immobilised on glutathione-agarose as bait, His-EtEsp added as prey; eluate on 12% SDS-PAGE, western blot with anti-rEtAMA1 and anti-rEtEsp; both purified.

No constants are given. Whether binding was seen depends on the method and setting. Binding can be weak; no strength is given.

For “His-EtEsp (recombinant E. tenella Eimeria-specific protein) (from UniProt U6KIP1)”, the binding result is “binds”.
